Measured values published in PubChem BioAssay AID588497 (NMMLSC, 2011).
Hit rate of the full screen: of about 360,000 compounds, about 780 (0.22%) were called active. The inconclusive results got no clear call from the source; some entries with a clear call stand among them for comparison. No stated cut-off is given here; in the data, active means inhibition above about 35% (passing the limit was not always enough); inconclusive means no clear call, values can overlap the other calls.

These molecules were tested on Botulinum neurotoxin type F light chain protease (Clostridium botulinum) (assay: BoNT/F light chain protease inhibitors, primary screen, biochemical, flow cytometry, MLPCN library (AID 588497; further: plate controls were buffer without enzyme for full effect and enzyme alone for no effect)). Details: Multiplex microsphere protease cleavage assay, at 10 µM, stronger effect = higher value.

SMILES | inhibition
O=C1c2cc(F)ccc2-n2c1nc1ccccc1c2=O | inconclusive: -32.4%
CC1CC(=O)Nc2ccccc2N1C(=O)Cn1cnc2ccc(Br)cc2c1=O (stereo not drawn) | inconclusive: -2.4%
COc1ccc(CNC(=O)CN(c2ccc(OC)c(Cl)c2)S(=O)(=O)c2ccc(C)cc2)cc1 | inactive: -6.9%
COc1ccc(NC(=O)c2ccc(N3CCOCC3)nc2)cc1 | inactive: -11.1%
O=C(N/N=C\C=C\c1ccc([N+](=O)[O-])o1)c1cccs1 | inconclusive: -12.1%
N#CCCN(Cc1cccs1)C(=O)Nc1ccc(F)cc1 | inconclusive: -33.5%
O=C(CCCc1nc(-c2ccccc2Cl)no1)NC1CCCC1 | inactive: -0.1%
CCOC(=O)CNc1nnc(SCC(=O)OCC)[nH]c1=O | inconclusive: -26.9%
O=C(NNc1ccc(Cl)cc1)c1sccc1Cl | inconclusive: 76.6%
CCCCOc1ccc(S(=O)(=O)NC(=O)C2(C)CCN2C(=O)Cc2cccs2)cc1 (stereo not drawn) | inactive: 0.4%
O=C(/C=C/NNC(=O)c1ccccc1O)c1ccccc1 | inconclusive: -13.3%
CCn1nc(C)c([N+](=O)[O-])c1C(=O)NNC(=O)c1ccccc1Cl | inconclusive: 32.1%
O=S(=O)(c1ccccc1)N1CCN(S(=O)(=O)c2ccc(F)cc2)CC1 | inconclusive: -22.6%
Cc1ccc(/C=N/Nc2nc(C)cc(C)n2)cc1 | inconclusive: 22.1%
CCOC(=O)/C=c1\s/c(=C\c2c(OC)ccc3ccccc23)c(=O)n1CC(=O)NCC1CCCO1 (stereo not drawn) | inactive: -6.4%
O=S(=O)(Oc1ccccc1N1CCCCC1)c1ccccc1 | inconclusive: -9.7%
O=[N+]([O-])c1ccc(SCCO)nc1SCCO | inconclusive: -45.4%
Cc1ccccc1Oc1ccc2c(c1)[C@@H]1C[C@H](N(C)C(=O)Nc3cc(Cl)cc(Cl)c3)[C@H]([C@H](C)O)C(=O)N1CC2 | inactive: -9.4%
Nc1nc(CN2CCN(c3ccccc3)CC2)nc(N2CCCc3ccccc32)n1 | inactive: -10.2%
O=C(OC1CCCCC1=O)c1ccc(F)c(S(=O)(=O)N2CCOCC2)c1 (stereo not drawn) | inconclusive: 12%

SMILES | inhibition
CSc1c(C#N)c(N)nc2sc(C(=O)c3ccccc3)c(N)c12 | inconclusive: 28.8%
COc1cc(/C=C/C(=O)CC(=O)/C=C/c2ccc(O)c(OC)c2)ccc1O | inactive: -12.4%
CCc1cc2c(=O)n(CCC(C)C)c(=S)[nH]c2s1 | inactive: -2.9%
O=C(N/N=C/c1ccco1)c1ccc2nc[nH]c2c1 | inconclusive: -14.8%
COc1ccc(-n2ccn(CC(=O)Nc3ccccc3OC)c(=O)c2=O)cc1 | inactive: -3.8%
Brc1ccc2oc(-c3ccn[nH]3)cc2c1 | inconclusive: -25.7%
CN1CCN(C(=O)c2cccn(Cc3cccc(Cl)c3)c2=O)CC1 | inconclusive: 3.2%
CCc1ccccc1NC(=O)C1CCN(S(=O)(=O)c2ccc(N3CCCC3=O)cc2)CC1 | inactive: -8.6%
COc1ccccc1NS(=O)(=O)c1ccc(C(=O)NCCCN2CCOCC2)cc1 | inconclusive: 7.9%
CCN(CC)C(=O)Cn1cc(S(=O)(=O)CC(=O)Nc2ccc(OC)c(OC)c2)c2ccccc21 | inactive: 7.4%
N#C/C(=C\Nc1ccc(Cl)cn1)S(=O)(=O)c1ccccc1 | inconclusive: 91.7%
Cc1nnsc1C(=O)N(Cc1ccccc1)C(C)C | inconclusive: -5%
CCOc1ccc(C2C(C#N)=C(N)SC(N)=C2C#N)c(OCC)c1 | inconclusive: 180%
Cc1cc(C(=O)CCC(=O)NCc2ccccc2F)c(C)s1 | inconclusive: 5.4%
CCN(CC)CC(=O)N1CCCC(N2CCN(c3cccc(C(F)(F)F)c3)CC2)C1 (stereo not drawn) | inconclusive: -21%
c1ccc(Cn2nnnc2CN2CCN(c3ncccn3)CC2)cc1 | inconclusive: 4.1%
CCOC(=O)c1ccc(N=C2SC(C(=O)NC)CC(=O)N2CCc2ccccc2)cc1 (stereo not drawn) | inconclusive: -32.2%
CC1NC(=O)c2ccccc2-n2c1nc1ccc(F)cc1c2=O (stereo not drawn) | inactive: -1.6%
CC1CCCN1CC#CC(O)(c1ccccc1)c1ccccc1 (stereo not drawn) | inconclusive: 58.8%
Cc1c(C)c2ccc(OCC(=O)N[C@@H](Cc3c[nH]c4ccccc34)C(=O)O)cc2oc1=O | inactive: -13.3%

SMILES | inhibition
CC(=O)Nc1cccc(NC(=O)c2ccc(Br)cc2)c1 | inactive: -7.2%
Cc1onc(-c2ccccc2)c1C(=O)OCC(=O)N(C)c1c(N)n(Cc2ccccc2)c(=O)[nH]c1=O | inconclusive: 4.4%
COc1cc2c(cc1OC)CN(c1ncccc1[N+](=O)[O-])CC2 | inconclusive: 21.5%
COc1cnc(-c2cccc(C(F)(F)F)c2)nc1OC | inactive: -2.7%
Cc1ccc(S(=O)(=O)NNC(=S)NC(C)(C)C)cc1 | inconclusive: 55%
N=c1n(CC(=O)c2ccc(Br)cc2)c2ccccc2n1Cc1ccccc1 | inactive: -11.7%
Cc1nn(-c2ccccc2)c(C)c1Cc1ccc(O)cc1 | inconclusive: 0.4%
CC[n+]1c(/C=C/C=C/N(C(C)=O)c2ccccc2)sc2ccccc21 | inconclusive: -50%
COc1ccc(N2CCN(c3ncnc4c3[nH]c3ccccc34)CC2)cc1 | inactive: 0.1%
O=C(NCc1ccccc1)Nc1nnc([C@@H]2C[C@H](O)[C@@H](CO)O2)s1 | inactive: -4.5%
CN(Cc1ccccc1)C(c1ccnc2ccccc12)c1nnnn1-c1ccc2c(c1)OCCO2 (stereo not drawn) | inactive: -9%
O=C(CNC(=O)[C@@H]1Cc2ccccc2CN1)NCc1ccco1 | inactive: -2%
O=C(O)C1CCCCC1C(=O)NCCCN1CCCC1=O (stereo not drawn) | active: 48%
O=C(Cc1ccc(Br)cc1)NCCc1ccccc1 | inconclusive: 15.9%
O=S1(=O)CCN(c2ccccc2CC(c2c[nH]c3ccccc23)c2c[nH]c3ccccc23)CC1 | inactive: -5.1%
CCOc1ccc(CN2CCN(Cc3cccn3-c3nccs3)CC2CCO)cc1 (stereo not drawn) | inactive: -0.9%
O=C(N(Cc1ccccc1)c1ccccn1)C12CC3CC(CC(C3)C1)C2 | inconclusive: 34.2%
NC(=O)c1cc2c(s1)-c1cc(Cl)ccc1SC2 | inconclusive: -89.2%

Taken from above:
inhibition, COc1cc2c(cc1OC)CN(c1ncccc1[N+](=O)[O-])CC2 is entered as inconclusive: 21.5%
inhibition, COc1cnc(-c2cccc(C(F)(F)F)c2)nc1OC is entered as inactive: -2.7%
